Measured values: patent publication US5100663A, “Tyr-Gly compositions useful in increasing immune response” (priority 1990, dated 1992)
Not every detail of the peptide structures is certain; ends, links or a residue may be inferred. Residues, ends and D or L forms follow the SMILES beside them.

Tested on: cell-mediated immune system response
Assay: Amplifier (immunological) activity of HPLC fractions and their constituents
Settings: HPLC fractions of human leukocyte dialysate and constituents
Source text: Absorbance was monitored at […], 0.1 Absorbance Units=Full Scale. […] The first peak was lower than the second and third, in terms of absorbance units, and is believed to be an artifact of the system associated with the ethanol solvent or due to elution of salts. The second and third peaks varied in relative height from preparation to preparation.
Other moieties found present in effluents of this process were Gly-Gly, Ser-Phe, and Ala, along with possibly other amino acid residues as well.

Compound	amplifier / immunological activity
NCC(=O)N[C@@H](CCC(=O)O)C(=O)O [Gly-Glu] (H-Gly-Glu-OH)	found to lack intrinsic amplifier activity
N[C@@H](Cc1ccccc1)C(=O)N[C@@H](CO)C(=O)O [Phe-Ser] (H-Phe-Ser-OH)	found to lack intrinsic amplifier activity
